From article PMC3025437
No constants are given. Whether binding was seen depends on the method and setting. Some entries that bind do so weakly or less than the wild type.

Sequences of proteins named here, by UniProt entry; tags and fusion partners are left off. A change or cut given only in a name is not applied to a line headed by its entry. Residues count along the entry.
UniProt P02454: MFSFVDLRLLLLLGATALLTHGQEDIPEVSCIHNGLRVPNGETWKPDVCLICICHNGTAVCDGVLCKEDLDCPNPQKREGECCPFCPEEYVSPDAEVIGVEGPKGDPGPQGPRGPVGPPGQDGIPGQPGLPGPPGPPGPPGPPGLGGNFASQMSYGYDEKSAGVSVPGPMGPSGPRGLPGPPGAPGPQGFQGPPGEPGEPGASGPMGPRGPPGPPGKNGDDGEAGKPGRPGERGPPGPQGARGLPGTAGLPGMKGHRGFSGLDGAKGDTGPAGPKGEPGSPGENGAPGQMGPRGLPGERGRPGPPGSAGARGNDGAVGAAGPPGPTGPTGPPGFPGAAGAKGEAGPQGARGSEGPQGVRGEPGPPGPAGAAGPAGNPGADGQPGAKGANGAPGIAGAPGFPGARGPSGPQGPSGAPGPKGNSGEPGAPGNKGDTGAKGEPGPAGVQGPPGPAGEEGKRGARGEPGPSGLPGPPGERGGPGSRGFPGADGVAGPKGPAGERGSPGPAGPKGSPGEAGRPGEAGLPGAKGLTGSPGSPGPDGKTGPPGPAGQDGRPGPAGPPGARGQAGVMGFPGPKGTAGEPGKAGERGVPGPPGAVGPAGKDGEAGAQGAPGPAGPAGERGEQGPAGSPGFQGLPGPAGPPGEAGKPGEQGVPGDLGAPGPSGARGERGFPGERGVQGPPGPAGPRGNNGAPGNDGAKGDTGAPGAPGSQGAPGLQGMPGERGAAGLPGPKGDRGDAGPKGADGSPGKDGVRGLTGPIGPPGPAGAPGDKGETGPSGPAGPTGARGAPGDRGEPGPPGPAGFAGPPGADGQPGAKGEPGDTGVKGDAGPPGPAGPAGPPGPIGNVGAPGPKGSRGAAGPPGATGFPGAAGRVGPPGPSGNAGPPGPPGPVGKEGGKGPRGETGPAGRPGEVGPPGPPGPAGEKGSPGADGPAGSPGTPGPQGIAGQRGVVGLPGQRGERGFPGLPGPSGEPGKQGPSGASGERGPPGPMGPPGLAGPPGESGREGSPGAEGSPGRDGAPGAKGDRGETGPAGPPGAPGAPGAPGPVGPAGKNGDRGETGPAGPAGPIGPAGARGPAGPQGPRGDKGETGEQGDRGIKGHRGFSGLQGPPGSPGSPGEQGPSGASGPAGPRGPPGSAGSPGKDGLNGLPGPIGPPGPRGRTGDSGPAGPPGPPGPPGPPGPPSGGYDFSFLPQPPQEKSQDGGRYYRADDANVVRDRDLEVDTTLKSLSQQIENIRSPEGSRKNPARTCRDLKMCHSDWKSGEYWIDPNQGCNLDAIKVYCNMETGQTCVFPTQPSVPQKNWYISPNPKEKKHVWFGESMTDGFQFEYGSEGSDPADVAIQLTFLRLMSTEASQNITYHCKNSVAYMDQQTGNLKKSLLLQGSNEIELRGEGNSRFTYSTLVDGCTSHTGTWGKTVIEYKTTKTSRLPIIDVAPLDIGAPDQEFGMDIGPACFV
UniProt P04275, residues 764-2813: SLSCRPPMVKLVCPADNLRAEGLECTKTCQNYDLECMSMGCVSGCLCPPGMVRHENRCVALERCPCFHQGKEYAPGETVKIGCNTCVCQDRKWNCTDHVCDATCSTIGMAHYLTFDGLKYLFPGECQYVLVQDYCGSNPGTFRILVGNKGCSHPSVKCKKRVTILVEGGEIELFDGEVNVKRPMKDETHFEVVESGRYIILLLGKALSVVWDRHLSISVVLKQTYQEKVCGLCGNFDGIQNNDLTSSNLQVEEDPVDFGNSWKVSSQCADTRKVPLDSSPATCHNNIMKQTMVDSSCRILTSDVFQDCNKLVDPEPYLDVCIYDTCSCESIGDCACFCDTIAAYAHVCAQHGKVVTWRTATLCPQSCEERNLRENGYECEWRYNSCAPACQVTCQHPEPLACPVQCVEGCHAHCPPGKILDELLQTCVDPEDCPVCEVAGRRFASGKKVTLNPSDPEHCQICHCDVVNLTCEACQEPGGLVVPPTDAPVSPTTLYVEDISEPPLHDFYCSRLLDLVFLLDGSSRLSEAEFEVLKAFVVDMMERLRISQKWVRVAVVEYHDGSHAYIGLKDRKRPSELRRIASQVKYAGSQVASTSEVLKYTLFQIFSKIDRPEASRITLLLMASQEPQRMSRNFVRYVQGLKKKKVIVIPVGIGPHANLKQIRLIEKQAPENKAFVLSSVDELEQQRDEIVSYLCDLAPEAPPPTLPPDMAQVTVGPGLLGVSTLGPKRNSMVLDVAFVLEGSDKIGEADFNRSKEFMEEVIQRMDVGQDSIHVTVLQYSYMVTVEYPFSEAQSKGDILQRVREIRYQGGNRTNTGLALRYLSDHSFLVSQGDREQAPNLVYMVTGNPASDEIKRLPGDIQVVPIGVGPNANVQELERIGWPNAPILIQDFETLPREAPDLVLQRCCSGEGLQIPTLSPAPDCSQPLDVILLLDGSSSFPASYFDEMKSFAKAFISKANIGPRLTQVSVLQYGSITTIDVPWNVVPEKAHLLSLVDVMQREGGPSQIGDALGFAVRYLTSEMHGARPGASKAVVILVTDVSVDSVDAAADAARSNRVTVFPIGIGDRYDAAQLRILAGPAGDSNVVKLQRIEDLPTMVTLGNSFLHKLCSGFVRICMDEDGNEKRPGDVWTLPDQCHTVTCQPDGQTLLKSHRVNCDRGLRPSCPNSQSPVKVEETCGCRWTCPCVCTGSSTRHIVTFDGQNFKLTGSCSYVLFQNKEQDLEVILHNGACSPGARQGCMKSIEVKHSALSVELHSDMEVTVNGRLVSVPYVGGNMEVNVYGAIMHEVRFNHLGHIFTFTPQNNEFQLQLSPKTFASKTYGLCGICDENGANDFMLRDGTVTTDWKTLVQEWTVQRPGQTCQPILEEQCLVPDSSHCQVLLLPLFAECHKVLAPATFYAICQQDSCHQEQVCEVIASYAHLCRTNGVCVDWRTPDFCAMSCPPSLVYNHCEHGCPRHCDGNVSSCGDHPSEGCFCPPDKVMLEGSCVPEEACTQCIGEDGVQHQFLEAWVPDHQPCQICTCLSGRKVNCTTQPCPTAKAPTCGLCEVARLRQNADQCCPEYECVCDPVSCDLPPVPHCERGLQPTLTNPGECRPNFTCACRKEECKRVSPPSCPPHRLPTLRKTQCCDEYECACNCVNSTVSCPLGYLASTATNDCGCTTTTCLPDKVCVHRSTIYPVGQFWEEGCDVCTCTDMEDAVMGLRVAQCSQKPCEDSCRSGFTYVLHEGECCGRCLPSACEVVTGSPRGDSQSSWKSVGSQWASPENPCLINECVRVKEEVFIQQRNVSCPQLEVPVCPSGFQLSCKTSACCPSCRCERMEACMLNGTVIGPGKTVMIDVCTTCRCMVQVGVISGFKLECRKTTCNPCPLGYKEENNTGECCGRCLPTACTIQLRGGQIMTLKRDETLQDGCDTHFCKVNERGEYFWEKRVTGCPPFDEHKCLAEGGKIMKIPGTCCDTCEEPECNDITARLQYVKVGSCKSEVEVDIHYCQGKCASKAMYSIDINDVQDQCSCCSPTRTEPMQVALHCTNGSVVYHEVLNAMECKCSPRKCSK

Target: collagen I (coating of a 96-well collagen I coated plate) (UniProt P02454)
Assay: ELISA; collagen I coated 96-well plate incubated with vWF (0 to 8 ug/ml) in HBSS for four hours, washed, bound vWF detected with peroxidase-conjugated rabbit polyclonal anti-human vWF antibody; OD 450 nm, relative units; both purified

Substance: Human vWF-Factor VIII free (from UniProt P04275 764-2813)
- binding: binds
